# Reference: PubChem BioAssay AID1259254 (NCATS, 2017)
# Screen: 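Genome-wide screen for genes that prevent DNA re-replication in cancer cells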 (primary screen)
# Cells: human HCT116 colorectal cancer cells
# Reagent: single siRNA against human genes
# Duration: 3 days
# Measurement: 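Nuclei stained with Hoechst and imaged; cell-cycle phase assigned by DNA content; G2 share scaled per plate, non-targeting siRNA 0%, GMNN siRNA 100%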
# Direction: G2 robust z-score: higher = more G2 cells, more excess DNA replication
# Call rule: 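Active siRNAs have a G2 robust z of 5 or more median absolute deviations over the median, which in these data means about 38% or higher of GMNN control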
# In all, the deposit lists about 59,000 reagents; below is a random part of them. About 1,550 of them (2.6%) were called active. 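G2 share is only a proxy for re-replication; each gene was hit by three separate siRNAs, and active genes were retested.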 The numbers tell different reagents against one gene apart. Further read-outs or replicates are left out here. Reagent sequences are not shown. Not given: the amount of reagent.
target,reagent no.,G2 robust z-score,call
MAPK8IP3 (GeneID 23162),1,-0.963,inactive
MAPK8IP3 (GeneID 23162),2,-0.0763,inactive
MAPK8IP3 (GeneID 23162),3,-0.882,inactive
ZBED3-AS1 (GeneID 728723),1,2.3,inactive
ZBED3-AS1 (GeneID 728723),2,2.33,inactive
ZBED3-AS1 (GeneID 728723),3,0.43,inactive
MST1 (GeneID 4485),1,2.95,inactive
MST1 (GeneID 4485),2,-0.747,inactive
MST1 (GeneID 4485),3,-0.727,inactive
WLS (GeneID 79971),1,1.77,inactive
WLS (GeneID 79971),2,-0.236,inactive
WLS (GeneID 79971),3,4.75,inactive
IRF3 (GeneID 3661),1,-0.701,inactive
IRF3 (GeneID 3661),2,0.832,inactive
IRF3 (GeneID 3661),3,-0.718,inactive
KLHL11 (GeneID 55175),1,1.1,inactive
KLHL11 (GeneID 55175),2,-0.227,inactive
KLHL11 (GeneID 55175),3,0.943,inactive
CLK4 (GeneID 57396),1,0.418,inactive
CLK4 (GeneID 57396),2,0.942,inactive
CLK4 (GeneID 57396),3,-0.0721,inactive
ZNF750 (GeneID 79755),1,-0.196,inactive
ZNF750 (GeneID 79755),2,-0.821,inactive
ZNF750 (GeneID 79755),3,-1.2,inactive
DIAPH2 (GeneID 1730),1,-0.695,inactive
DIAPH2 (GeneID 1730),2,0.0599,inactive
DIAPH2 (GeneID 1730),3,-0.554,inactive
MAL2 (GeneID 114569),1,0.276,inactive
MAL2 (GeneID 114569),2,0.831,inactive
MAL2 (GeneID 114569),3,0.55,inactive
OR4F4 (GeneID 26682),1,-0.415,inactive
OR4F4 (GeneID 26682),2,-0.723,inactive
OR4F4 (GeneID 26682),3,4.74,inactive
BPNT1 (GeneID 10380),1,1.75,inactive
BPNT1 (GeneID 10380),2,-0.808,inactive
BPNT1 (GeneID 10380),3,1.22,inactive
UBOX5 (GeneID 22888),1,0.374,inactive
UBOX5 (GeneID 22888),2,-0.26,inactive
UBOX5 (GeneID 22888),3,-0.737,inactive
TFDP2 (GeneID 7029),1,-0.66,inactive
TFDP2 (GeneID 7029),2,-0.161,inactive
TFDP2 (GeneID 7029),3,-0.329,inactive
ST3GAL5 (GeneID 8869),1,0.771,inactive
ST3GAL5 (GeneID 8869),2,-0.775,inactive
ST3GAL5 (GeneID 8869),3,0.673,inactive
DMBX1 (GeneID 127343),1,-0.857,inactive
DMBX1 (GeneID 127343),2,-0.0744,inactive
DMBX1 (GeneID 127343),3,-1.21,inactive
HSP90AB1 (GeneID 3326),1,-1.03,inactive
HSP90AB1 (GeneID 3326),2,-0.456,inactive
HSP90AB1 (GeneID 3326),3,-0.164,inactive
OR4K15 (GeneID 81127),1,-0.173,inactive
OR4K15 (GeneID 81127),2,1.94,inactive
OR4K15 (GeneID 81127),3,0.765,inactive
C22orf39 (GeneID 128977),1,0.483,inactive
C22orf39 (GeneID 128977),2,2.1,inactive
C22orf39 (GeneID 128977),3,-0.491,inactive
MS4A3 (GeneID 932),1,0.567,inactive
MS4A3 (GeneID 932),2,0.248,inactive
MS4A3 (GeneID 932),3,-1.29,inactive
DCLRE1A (GeneID 9937),1,-0.977,inactive
DCLRE1A (GeneID 9937),2,-0.137,inactive
DCLRE1A (GeneID 9937),3,0.0992,inactive
SACK1D (GeneID 81610),1,0.127,inactive
SACK1D (GeneID 81610),2,1.43,inactive
SACK1D (GeneID 81610),3,0.93,inactive
ITGA4 (GeneID 3676),1,-1.36,inactive
ITGA4 (GeneID 3676),2,2.84,inactive
ITGA4 (GeneID 3676),3,-1.01,inactive
APOC2 (GeneID 344),1,-1.32,inactive
APOC2 (GeneID 344),2,0.0573,inactive
APOC2 (GeneID 344),3,-0.922,inactive
CELA2B (GeneID 51032),1,0.0517,inactive
CELA2B (GeneID 51032),2,2.69,inactive
CELA2B (GeneID 51032),3,-0.967,inactive
ZNF706 (GeneID 51123),1,2.01,inactive
ZNF706 (GeneID 51123),2,0.156,inactive
ZNF706 (GeneID 51123),3,1.92,inactive
TMEM200A (GeneID 114801),1,-0.00999,inactive
TMEM200A (GeneID 114801),2,1.46,inactive
TMEM200A (GeneID 114801),3,0.158,inactive
CCM2 (GeneID 83605),1,-0.328,inactive
CCM2 (GeneID 83605),2,1.36,inactive
CCM2 (GeneID 83605),3,-0.641,inactive
LOC401478 (GeneID 401478),1,-0.156,inactive
LOC401478 (GeneID 401478),2,1,inactive
LOC401478 (GeneID 401478),3,-0.725,inactive

Records above whose gene name starts with K or k:
target,reagent no.,G2 robust z-score,call
KLHL11 (GeneID 55175),1,1.1,inactive
KLHL11 (GeneID 55175),2,-0.227,inactive
KLHL11 (GeneID 55175),3,0.943,inactive
